Paper PMC12748884
These are yes or no findings as the source states them, for the method shown. Binding seen in cells or lysates may run through a third protein. Some binding calls cover weakened binding; strength is not graded here.

Protein sequences, listed by entry. Tags and fused reporters are not part of them.
UniProt Q13526: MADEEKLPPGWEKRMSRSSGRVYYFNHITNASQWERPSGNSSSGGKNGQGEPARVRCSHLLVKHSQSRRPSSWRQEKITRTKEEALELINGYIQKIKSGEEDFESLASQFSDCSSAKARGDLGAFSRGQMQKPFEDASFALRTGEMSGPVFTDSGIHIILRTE
UniProt P35222: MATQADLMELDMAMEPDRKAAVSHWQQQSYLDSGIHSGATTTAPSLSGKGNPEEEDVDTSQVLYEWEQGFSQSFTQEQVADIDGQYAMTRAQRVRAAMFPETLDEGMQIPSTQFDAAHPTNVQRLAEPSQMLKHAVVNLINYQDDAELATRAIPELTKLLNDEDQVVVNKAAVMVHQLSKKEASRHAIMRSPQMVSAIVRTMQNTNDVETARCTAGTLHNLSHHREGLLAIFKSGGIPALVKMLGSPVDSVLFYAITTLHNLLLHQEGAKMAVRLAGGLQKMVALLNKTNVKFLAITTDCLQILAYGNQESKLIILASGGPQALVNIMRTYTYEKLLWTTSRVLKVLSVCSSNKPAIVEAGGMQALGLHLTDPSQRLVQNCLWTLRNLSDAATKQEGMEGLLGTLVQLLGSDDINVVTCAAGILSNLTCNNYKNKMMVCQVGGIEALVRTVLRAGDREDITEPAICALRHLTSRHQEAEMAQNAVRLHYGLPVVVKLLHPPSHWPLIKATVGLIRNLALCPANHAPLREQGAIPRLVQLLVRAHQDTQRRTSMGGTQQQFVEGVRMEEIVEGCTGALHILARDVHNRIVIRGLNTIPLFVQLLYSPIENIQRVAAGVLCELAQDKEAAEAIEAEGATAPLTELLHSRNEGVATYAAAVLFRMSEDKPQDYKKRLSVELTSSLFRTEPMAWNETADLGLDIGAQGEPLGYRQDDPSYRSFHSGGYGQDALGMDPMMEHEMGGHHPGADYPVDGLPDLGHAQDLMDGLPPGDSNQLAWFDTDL

Target: Peptidyl-prolyl cis/trans isomerase (PPIase) NIMA-interacting 1 (Pin1) (human (endogenous in MRC-5)) (UniProt Q13526)
Experiment: co-IP; lysates of MRC-5 cells, mock-transfected or transfected with the LMP1 construct (harvested 3 days post-transfection); immunoprecipitated with Pin1 antibodies, immunoblotted with β-catenin antibodies; species- and isotype-matched control IgG in parallel

## β-catenin (from UniProt P35222 1-781)
  binding: binds
